Measured values reported in US6541453B2 (Syngenta Limited, priority 1996, dated 2003).

Experiment: general procedure: Fmoc solid-phase peptide synthesis; Fmoc Rink Amide MBHA; HBTU/HOBT/DIPEA (automated); diisopropylcarbodiimide/HOBT (manual)
Settings: whole synthesis, scale 0.25 mmol

Phv-Ala-Ala-Ala-II-Val-Ala-Ala-Ala-Pip-NH2
final HPLC purity (RP-HPLC (Vydac C18 218TP54)): 94%
isolated mass: 83 mg
